Data: the supplement of paper PMC3334620
The full ranking holds about 33,000 sequences; the median of “E-score (-0.5 to 0.5)” is about -0.015, and the highest 2% start at about 0.3. The list shows a part of the results.

What follows are sequences tested against T1, Abf1 (UniProt P14164) (assay: PBM E-score (8-mer binding enrichment) (E-score (-0.5 to 0.5)); higher = stronger / more preferred TF binding). Settings: protein concentration: 200 nM; construct: GST-full length.
T1 sequence: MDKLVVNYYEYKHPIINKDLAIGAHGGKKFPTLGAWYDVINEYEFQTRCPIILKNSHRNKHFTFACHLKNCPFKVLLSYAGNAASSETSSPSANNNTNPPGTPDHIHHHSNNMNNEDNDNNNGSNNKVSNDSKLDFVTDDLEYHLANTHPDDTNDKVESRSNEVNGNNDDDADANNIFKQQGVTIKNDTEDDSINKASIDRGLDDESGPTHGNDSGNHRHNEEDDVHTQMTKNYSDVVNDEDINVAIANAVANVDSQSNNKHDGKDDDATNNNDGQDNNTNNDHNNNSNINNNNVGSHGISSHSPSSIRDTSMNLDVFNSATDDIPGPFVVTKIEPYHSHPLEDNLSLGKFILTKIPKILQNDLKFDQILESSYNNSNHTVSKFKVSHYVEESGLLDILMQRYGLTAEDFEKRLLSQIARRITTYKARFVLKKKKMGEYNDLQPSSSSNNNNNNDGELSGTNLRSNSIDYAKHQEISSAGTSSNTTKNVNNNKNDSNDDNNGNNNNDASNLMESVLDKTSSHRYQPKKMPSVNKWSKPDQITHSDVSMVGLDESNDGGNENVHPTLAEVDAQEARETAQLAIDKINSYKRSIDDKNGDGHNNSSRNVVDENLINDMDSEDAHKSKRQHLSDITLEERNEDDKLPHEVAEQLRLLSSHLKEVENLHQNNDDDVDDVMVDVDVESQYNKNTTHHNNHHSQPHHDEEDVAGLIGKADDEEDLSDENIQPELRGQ
Outline: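 Each ungapped eight-base word and its reverse complement, pooled, received an E-score from the Universal PBM Analysis Suite. Underlying scans, normalised with masliner, recorded fluorescent anti-GST bound to GST-tagged yeast transcription factors. These were applied at about 100-200 nM to universal all-10-mer Agilent arrays double-stranded by primer extension.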
In the case of AAGCAAAT, the “PBM E-score” value was 0.0514.
For ACGCTTTG, the “PBM E-score” value was 0.102.
GCTATCCC was tested, and the “PBM E-score” value was -0.281.
For CTGGTAAA, the “PBM E-score” value was -0.16.
With ATCGTTGC the “PBM E-score” value was 0.116.
ATTGAACG was tested, and the “PBM E-score” value was 0.223.
With AGGTGAAT the “PBM E-score” value was 0.0397.
With ACATCCAG the “PBM E-score” value was -0.0483.
In the case of CACGACGG, the “PBM E-score” value was 0.356.
With CCGAAAGG the “PBM E-score” value was 0.0609.
CGATAGCC was tested, and the “PBM E-score” value was 0.104.
In the case of CCACCTCG, the “PBM E-score” value was -0.237.
In the case of ACTGCCTA, the “PBM E-score” value was 0.0517.
In the case of AAAAGTAA, the “PBM E-score” value was 0.208.
With CTCGTATA the “PBM E-score” value was 0.241.
For CCTGTTCG, the “PBM E-score” value was -0.211.
In the case of TGTATGAA, the “PBM E-score” value was -0.0411.
For GGGATTCA, the “PBM E-score” value was 0.0595.
With AACTTCAT the “PBM E-score” value was -0.0877.
With TAACGTCA the “PBM E-score” value was 0.262.
In the case of CTGGGGCA, the “PBM E-score” value was -0.0646.
AGAACCCC was tested, and the “PBM E-score” value was -0.221.
With GTAAACGA the “PBM E-score” value was 0.252.
GTGACTGA was tested, and the “PBM E-score” value was 0.198.
With AACCGGCC the “PBM E-score” value was -0.068.
GCGAGAAA was tested, and the “PBM E-score” value was -0.0304.
With CCAATGCA the “PBM E-score” value was -0.113.
For AGAGAAAC, the “PBM E-score” value was -0.133.
In the case of AAGGCGCA, the “PBM E-score” value was -0.00185.
In the case of CAATAGGC, the “PBM E-score” value was -0.0919.
For AGTGCTAT, the “PBM E-score” value was -0.164.
For CAATGAGG, the “PBM E-score” value was -0.155.
GGGGGGAA was tested, and the “PBM E-score” value was -0.326.
For GAAAGATC, the “PBM E-score” value was 0.0837.
For CTGTATGC, the “PBM E-score” value was -0.148.
For GAGGGGCA, the “PBM E-score” value was -0.241.
GAGTAACC was tested, and the “PBM E-score” value was 0.0918.
In the case of GGAAGGTA, the “PBM E-score” value was -0.12.
With CCGCTTGC the “PBM E-score” value was -0.0771.
AACTGGAA was tested, and the “PBM E-score” value was -0.121.
CGCCTTCA was tested, and the “PBM E-score” value was -0.3.
GAGGAACC was tested, and the “PBM E-score” value was -0.0481.
AGTGTGTG was tested, and the “PBM E-score” value was -0.0735.
In the case of CATCAATC, the “PBM E-score” value was 0.096.
For CATGGTTC, the “PBM E-score” value was 0.0582.
For ATTGAGGC, the “PBM E-score” value was -0.0187.
With CTTGTGAC the “PBM E-score” value was 0.082.
CCATACCA was tested, and the “PBM E-score” value was -0.15.
With ATGGACCG the “PBM E-score” value was -0.167.
For ACGCACCT, the “PBM E-score” value was 0.0162.
In the case of AATATGGA, the “PBM E-score” value was -0.0361.
In the case of ATACAGCC, the “PBM E-score” value was -0.177.
For CACCCCGC, the “PBM E-score” value was -0.155.
In the case of ACTTGGCC, the “PBM E-score” value was -0.0773.
In the case of GGTCTTAC, the “PBM E-score” value was -0.212.
With CAGGTTCC the “PBM E-score” value was -0.166.
For AGCTCAGA, the “PBM E-score” value was -0.0805.
For AGATACCT, the “PBM E-score” value was -0.0171.
In the case of CTAGAAAG, the “PBM E-score” value was -0.0726.
GCGGTGTA was tested, and the “PBM E-score” value was -0.141.
In the case of AACGTGTA, the “PBM E-score” value was -0.00361.
In the case of AAAGACGG, the “PBM E-score” value was 0.185.
CGACTTTA was tested, and the “PBM E-score” value was -0.0475.
For TGAATGAA, the “PBM E-score” value was -0.0107.
In the case of GGGCAATA, the “PBM E-score” value was -0.0147.
With ATATCAGC the “PBM E-score” value was 0.00929.
With CTTTCTAC the “PBM E-score” value was 0.185.
In the case of CAGTGCGG, the “PBM E-score” value was -0.103.
For CACTCAAA, the “PBM E-score” value was 0.162.
In the case of CGGGCAGA, the “PBM E-score” value was -0.0678.
In the case of AGAAGACG, the “PBM E-score” value was 0.0438.
In the case of GAACAACA, the “PBM E-score” value was -0.0189.
In the case of ATTACATA, the “PBM E-score” value was 0.156.
AGATTACT was tested, and the “PBM E-score” value was 0.0193.
For CTAAACTC, the “PBM E-score” value was -0.0785.
For TCATTACA, the “PBM E-score” value was 0.194.
With ATGATGAC the “PBM E-score” value was 0.306.
With AATCAAAG the “PBM E-score” value was -0.0218.
With ACCGTGGC the “PBM E-score” value was 0.0847.
In the case of AATTAAAG, the “PBM E-score” value was -8e-05.
AGTCTATA was tested, and the “PBM E-score” value was -0.12.
CAGGGCTA was tested, and the “PBM E-score” value was -0.201.
In the case of AACACATG, the “PBM E-score” value was -0.0328.
In the case of CTCAGCAA, the “PBM E-score” value was -0.0384.
AACGAAGT was tested, and the “PBM E-score” value was 0.136.
GACGGCGA was tested, and the “PBM E-score” value was 0.0475.
For ACATTCCG, the “PBM E-score” value was 0.0731.
For AAGCGAAA, the “PBM E-score” value was -0.122.
AGAACGCG was tested, and the “PBM E-score” value was -0.0195.
With CCAGGAAA the “PBM E-score” value was 0.0999.
CGCGCGAA was tested, and the “PBM E-score” value was 0.073.
With CCTTCCTA the “PBM E-score” value was -0.311.
ACCATCTG was tested, and the “PBM E-score” value was -0.129.
With AGTTAAAG the “PBM E-score” value was 0.0855.
